According to publication PMC8041807:
These are yes or no findings as the source states them, for the method shown. In cells and extracts the contact can be indirect. Here binding means that the protein was enriched with, or labelled near, the bait; the list need not be complete. Sequences can lack the tags named with a protein.

The chains behind the UniProt entries cited, without tags or fusion partners.
UniProt P51149: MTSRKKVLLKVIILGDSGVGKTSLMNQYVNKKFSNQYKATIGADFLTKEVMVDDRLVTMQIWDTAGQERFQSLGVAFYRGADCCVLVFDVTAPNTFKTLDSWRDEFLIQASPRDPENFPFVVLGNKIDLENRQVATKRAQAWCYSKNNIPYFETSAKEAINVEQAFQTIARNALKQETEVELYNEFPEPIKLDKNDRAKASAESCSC

Target: T1, FLAG-TRIM39 (human) (UniProt Q9HCM9)
T1 sequence: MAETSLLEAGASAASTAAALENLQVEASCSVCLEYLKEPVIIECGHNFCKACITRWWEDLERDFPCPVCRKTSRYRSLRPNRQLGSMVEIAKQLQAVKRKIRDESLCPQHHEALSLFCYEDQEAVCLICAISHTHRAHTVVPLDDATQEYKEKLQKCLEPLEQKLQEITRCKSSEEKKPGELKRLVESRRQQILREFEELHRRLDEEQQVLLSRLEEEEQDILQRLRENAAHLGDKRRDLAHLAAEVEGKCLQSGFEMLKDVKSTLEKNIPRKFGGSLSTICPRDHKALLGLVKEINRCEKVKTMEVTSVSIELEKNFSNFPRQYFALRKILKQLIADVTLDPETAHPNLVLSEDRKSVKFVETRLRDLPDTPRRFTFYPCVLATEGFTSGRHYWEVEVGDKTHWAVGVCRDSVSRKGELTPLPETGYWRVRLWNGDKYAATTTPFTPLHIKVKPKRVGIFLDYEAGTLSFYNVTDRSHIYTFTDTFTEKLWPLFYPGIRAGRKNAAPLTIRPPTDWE
Test: affinity purification with mass spectrometry; HEK293T transfected with empty vector or FLAG-TRIM39 for 48 h; total cell lysates immunoprecipitated with anti-FLAG antibody; mass spectrometry

## Rab7A (from UniProt P51149 1-207)
  binding: binds
